Data taken from paper PMC11302876.
These are yes or no findings as the source states them, for the method shown. In cells and extracts the contact can be indirect. Some entries that bind do so weakly or less than the wild type.

Amino acid sequences for entries named in this document (tags omitted).
UniProt P80200: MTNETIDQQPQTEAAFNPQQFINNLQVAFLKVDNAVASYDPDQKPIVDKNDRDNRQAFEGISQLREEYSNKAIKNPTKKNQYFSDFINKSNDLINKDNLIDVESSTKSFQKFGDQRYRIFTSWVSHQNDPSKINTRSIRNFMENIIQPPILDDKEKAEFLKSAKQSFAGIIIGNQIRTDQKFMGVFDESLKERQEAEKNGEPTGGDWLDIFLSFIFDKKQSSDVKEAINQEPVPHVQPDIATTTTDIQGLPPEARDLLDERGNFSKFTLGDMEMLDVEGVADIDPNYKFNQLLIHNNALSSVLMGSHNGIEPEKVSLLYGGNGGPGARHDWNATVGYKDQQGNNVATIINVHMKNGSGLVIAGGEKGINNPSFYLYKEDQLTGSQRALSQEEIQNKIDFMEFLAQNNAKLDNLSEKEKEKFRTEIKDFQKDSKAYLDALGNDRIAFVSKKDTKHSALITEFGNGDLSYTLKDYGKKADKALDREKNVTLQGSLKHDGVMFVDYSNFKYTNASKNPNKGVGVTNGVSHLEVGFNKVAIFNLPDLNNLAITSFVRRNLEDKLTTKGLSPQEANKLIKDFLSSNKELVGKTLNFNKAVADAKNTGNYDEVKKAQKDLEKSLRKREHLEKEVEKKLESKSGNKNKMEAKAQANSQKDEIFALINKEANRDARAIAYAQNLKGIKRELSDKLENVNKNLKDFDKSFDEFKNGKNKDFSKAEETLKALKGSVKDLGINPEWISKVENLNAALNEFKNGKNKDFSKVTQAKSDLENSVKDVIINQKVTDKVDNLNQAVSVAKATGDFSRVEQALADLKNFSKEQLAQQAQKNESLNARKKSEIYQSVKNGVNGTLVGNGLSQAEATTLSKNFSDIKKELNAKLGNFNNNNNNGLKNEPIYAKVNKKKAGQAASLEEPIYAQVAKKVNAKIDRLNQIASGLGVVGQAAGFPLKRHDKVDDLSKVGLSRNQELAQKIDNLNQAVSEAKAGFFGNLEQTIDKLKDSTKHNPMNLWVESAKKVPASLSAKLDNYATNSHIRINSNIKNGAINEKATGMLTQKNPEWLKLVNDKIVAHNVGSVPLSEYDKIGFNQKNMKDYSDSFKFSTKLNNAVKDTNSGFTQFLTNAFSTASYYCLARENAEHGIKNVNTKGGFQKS

Molecular target: T1, CYP11A1 (cholesterol side-chain cleavage enzyme) (human (endogenous in AGS and HGC-27)) (UniProt P05108)
T1 sequence: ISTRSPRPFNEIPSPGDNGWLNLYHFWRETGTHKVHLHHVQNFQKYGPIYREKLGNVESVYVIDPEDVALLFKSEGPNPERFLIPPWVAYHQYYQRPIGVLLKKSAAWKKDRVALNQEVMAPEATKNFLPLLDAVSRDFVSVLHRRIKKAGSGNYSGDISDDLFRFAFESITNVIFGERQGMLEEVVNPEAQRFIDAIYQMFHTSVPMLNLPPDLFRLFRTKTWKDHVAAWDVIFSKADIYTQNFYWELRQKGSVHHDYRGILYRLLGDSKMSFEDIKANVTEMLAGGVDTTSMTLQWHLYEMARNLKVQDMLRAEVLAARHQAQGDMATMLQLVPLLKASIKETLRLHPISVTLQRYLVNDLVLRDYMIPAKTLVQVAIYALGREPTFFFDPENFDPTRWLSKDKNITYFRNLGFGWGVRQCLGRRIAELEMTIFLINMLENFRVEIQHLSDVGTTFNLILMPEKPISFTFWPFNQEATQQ
Test: co-IP; lysates (NP-40 lysis buffer) of AGS or HGC-27 cells infected with H. pylori strains; immunoprecipitated in both directions with anti-CagA or anti-CYP11A1, protein A/G PLUS-agarose, overnight 4°C; wash 0.08% NP-40, 150 mM NaCl, 50 mM Tris-HCl pH 8.0, 5 mM MgCl2; Western blot

Q: With “Cytotoxin-associated gene A (CagA) of Helicobacter pylori strain NCTC 11637 (from UniProt P80200 1-1147)” as the substance, how does the binding read?
A: binds
